Reference: PubChem BioAssay AID540303 (National Center for Advancing Translational Sciences (NCATS), 2011)
The campaign covered roughly 330,000 compounds. About 1,000 (0.3%) were called active. Inconclusive results, whose numbers are uncertain, are shown with a selection of clear calls. Calls follow the shape of the dose curve; as a rule, active = well fitted inhibition curve with a large enough effect; inconclusive = small, poorly fitted or top-dose-only effect; inactive = no such curve, though single readings can be large or run the other way; tested in mouse RAW 264.7 cells. A potency beside an inconclusive call is a rough fit, not a confirmed value.

Experiment: qHTS for Inhibitors of Cell Surface uPA Generation; also: nearly all actives have a fitted effect of over 55% in size
Settings: cell surface uPA generation assay; series mostly up to 38.3 µM; activity change, negative = inhibition: at the top concentration
Outline: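 Intracellular ATP by ATPlite luminescence serves as read-out: inhibited cell-surface uPA generation prevents LF translocation, preserving ATP. Murine RAW 264.7 macrophages were treated 24 h at 37 C with five-fold serial dilutions, up to 38.3 uM final.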
% is scaled to controls: 0 for no effect and ±100 for the full control effect; potency is read from the fitted curve at half-maximal effect.

Compound	Potency	activity change, negative = inhibition
Cc1cccn2c(NC(=O)c3ccccc3F)c(-c3ccccc3)nc12	inconclusive: 2.82 µM [inhibitor, single point]	
CCCC(=O)Nc1cc(C(=O)N(C)CC(OC)OC)ccc1S(=O)(=O)c1ccc(C)cc1	inconclusive: 0.0112 µM [inhibitor, full curve, poor fit]	
Cc1c(NS(=O)(=O)c2cccc(C(=O)NCc3ccccc3)c2)c(=O)n(-c2ccccc2)n1C		inactive: -2.24%
CCN(CC)c1ccc(NC(=O)CC2Oc3ccccc3NC2=O)c(C)c1 (stereo not drawn)	inconclusive: 20 µM [inhibitor, single point]	
O=C(C1=C(O)C(=O)N(c2nc3ccc(Cl)cc3s2)C1c1ccco1)c1ccco1 (stereo not drawn)	inconclusive: 1 µM [inhibitor, partial curve, poor fit]	
CC(=O)Oc1ccc(C(=O)Nc2cccc(C(=O)c3ccc(C)c(C)c3)c2)cc1	inconclusive: 10 µM [inhibitor, single point]	
c1ccc(CCn2c3ccccc3c3nnc(SCc4ccc5nonc5c4)nc32)cc1	inconclusive: 3.16 µM [inhibitor, partial curve, poor fit]	
C#CCOCCOCCOCCNc1nc(N2CCN(C(=O)CCCCCCCCCCNC(=O)Cn3cc(CCCCCN)nn3)CC2)nc(N2CCN(C(=O)CCCCCCCCCCNC(=O)[C@@H]([C@H](C)O)n3cc(C)nn3)CC2)n1	inconclusive: 11.2 µM [inhibitor, partial curve, poor fit]	
O=C(Nc1nnc(SCC(=O)N2CCOCC2)s1)c1ccccc1Cl	inconclusive: 1.58 µM [inhibitor, partial curve]	
Clc1ccc(-n2nnc(-c3cccnc3Cl)n2)cn1	inconclusive: 6.31 µM [inhibitor, partial curve, poor fit]	
COc1cc(/C=N/Nc2nc3ccccc3[nH]2)ccc1O	inconclusive: 10 µM [inhibitor, partial curve, poor fit]	
Cc1ccc(C)c(NC(=O)Cn2nnc(C(=O)NCc3ccco3)c2N)c1	inconclusive: 1 µM [inhibitor, partial curve, poor fit]	
Oc1nc(Nc2cccc(Cl)c2)sc1/C=C1\C=Nc2ccccc21	inconclusive: 28.2 µM [inhibitor, single point]	
CCC(=O)N1CCc2nc(-c3ccccc3)sc2C1	inconclusive: 7.94 µM [inhibitor, partial curve, poor fit]	
Cc1ccc(/C=C/S(=O)(=O)NCC(=O)OCC(=O)Nc2ccc(C(=O)N(C)C)cc2)cc1		inactive: -9.4%
CCC(C)C(=O)Nc1nc(C)c(-c2csc(Nc3cc(OC)ccc3OC)n2)s1 (stereo not drawn)	inconclusive: 3.16 µM [inhibitor, partial curve, poor fit]	
O=C(NCCCN1CCOCC1)c1c(F)c(F)c(F)c(F)c1F		inactive: 0.4%
Cc1ccc(S(=O)(=O)CCSc2n[nH]c(=O)n2-c2ccc3c(c2)OCCO3)cc1	inconclusive: 11.2 µM [inhibitor, partial curve, poor fit]	
CCN1CCN(CCCNC(=O)c2ccc3c(c2)N(Cc2ccc(C)cc2)CCS3)CC1	inconclusive: 12.6 µM [inhibitor, single point]	
CCOC(=O)c1csc(NC(=O)c2cc3ccccc3o2)n1	inconclusive: 11.2 µM [inhibitor, single point]	
Cc1nnc(NC(=O)c2ccc3c(c2)C(=O)N(CC2CCCO2)C3=O)s1 (stereo not drawn)	inconclusive: 7.94 µM [inhibitor, single point]	

Compound	Potency	activity change, negative = inhibition
COc1ccc(S(=O)(=O)N2CCN(C(=O)N3CCOCC3)C2C)cc1 (stereo not drawn)		inactive: 2.24%
COc1cccc(NC(=O)CN(C)C(=O)c2ccc3c(c2)C(=O)N(CCC(C)C)C3=O)c1	inconclusive: 7.08 µM [inhibitor, single point]	
COc1cc(C(=O)NCc2ccc(OCCN(C)C)cc2)cc(OC)c1OC		inactive: 12.7%
Cc1ccc2nc3cc([N+](=O)[O-])cc([N+](=O)[O-])c3cc2c1	inconclusive: 3.55 µM [inhibitor, partial curve, poor fit]	
COc1ccc(OCc2cc(C(=O)NCCc3ccccc3)no2)c(Cl)c1	inconclusive: 6.31 µM [inhibitor, partial curve]	
N#CCC(CNc1ncc(C(F)(F)F)cc1Cl)OC(=O)c1c(F)cccc1F (stereo not drawn)	inconclusive: 10 µM [inhibitor, single point]	
COc1ccc(NS(=O)(=O)c2cc(NC(=O)c3ccc(=O)[nH]n3)ccc2N2CCOCC2)cc1	inconclusive: 3.98 µM [inhibitor, partial curve, poor fit]	
O=C1c2ccccc2NC(c2ccc(-c3cccc(Cl)c3)o2)N1O (stereo not drawn)	inconclusive: 4.47 µM [inhibitor, partial curve, poor fit]	
O=C(/C=C/NNC(=O)c1ccc(Cl)cc1)c1ccccc1	inconclusive: 12.6 µM [inhibitor, single point]	
CCOC(=O)CC1C(=O)NCCN1C(=S)NC(=O)c1ccccc1OC (stereo not drawn)		inactive: 14.1%
Cc1ncc([N+](=O)[O-])n1CCOC(=O)c1ccc(Cl)cc1Cl		inactive: 0.866%
CCOc1ccc(CSCCNC(=S)Nc2ccc(OC)cc2)cc1	inconclusive: 12.6 µM [inhibitor, single point]	
O=C(c1ccco1)N1CCN(C(=O)N2c3ccccc3Sc3ccccc32)CC1	inconclusive: 0.0079 µM [inhibitor, full curve, poor fit]	
C[C@@H]1CN([C@@H](C)CO)C(=O)c2cc(NC(=O)Nc3ccc(F)cc3)ccc2O[C@@H]1CN(C)Cc1ccc(Oc2ccccc2)cc1	inconclusive: 12.6 µM [inhibitor, single point]	
Cc1oc2cc3oc(=O)c(CCC(=O)NCCCN4CCOCC4)c(C)c3cc2c1C	inconclusive: 28.2 µM [inhibitor, single point]	
COc1cccc(N2CCN(C(=O)c3ccccc3SCC(=O)NCc3ccco3)CC2)c1	inconclusive: 1.12 µM [inhibitor, single point]	
CCc1ccc(Nc2nnc(SCC(=O)c3c(N)n(C4CC4)c(=O)[nH]c3=O)s2)cc1	inconclusive: 12.6 µM [inhibitor, single point]	
CCc1nnc(NC(=O)CSc2nccn2-c2cccc(C)c2)s1		inactive: 14.6%
O=C(O)c1ccc(NC(=O)c2cccc(S(=O)(=O)Nc3ccc(C(=O)O)cc3)c2)cc1		inactive: -8.28%
CCCCCCn1c(SCCOC)nc2c1c(=O)[nH]c(=O)n2C	inconclusive: 12.6 µM [inhibitor, single point]	
Cc1nnc(NC(=O)c2ccc3ccccc3n2)s1	inconclusive: 8.91 µM [inhibitor, single point]	

Compound	Potency	activity change, negative = inhibition
CC(C)C[C@H]1CN=C(Nc2ccccc2)N1CCCC1CCCC1	inconclusive: 10 µM [inhibitor, single point]	
CNC[C@H](O)c1ccc(O)c(O)c1	inconclusive: 6.31 µM [inhibitor, partial curve, poor fit]	
Cc1cccc(N2CCN(S(=O)(=O)c3ccc4[nH]c(=O)ccc4c3)CC2)c1C	inconclusive: 10 µM [inhibitor, partial curve, poor fit]	
COc1ccc(NC(=S)Nc2ccc3nsnc3c2)cc1	inconclusive: 0.282 µM [inhibitor, full curve, poor fit]	
C[C@H]1CN([C@@H](C)CO)C(=O)Cc2cc(NC(=O)CCC(F)(F)F)ccc2O[C@H]1CN(C)S(=O)(=O)c1ccc(Cl)cc1	inconclusive: 8.91 µM [inhibitor, partial curve, poor fit]	
O=C(COC(=O)COc1ccc(Cl)cc1Cl)NC1CCS(=O)(=O)C1 (stereo not drawn)	inconclusive: 0.794 µM [inhibitor, partial curve]	
COc1ccccc1NC(=S)NCc1ccc2c(c1)cc(C)n2C		inactive: -0.24%
CC(=O)c1ccc(N2CCN(C(=O)CCCn3c(=O)[nH]c4ccc(Br)cc4c3=O)CC2)cc1	inconclusive: 12.6 µM [inhibitor, single point]	
CC(C)c1ccc(-c2csc3nc[nH]c(=O)c23)cc1	inconclusive: 39.8 µM [inhibitor, partial curve, poor fit]	
CCc1nnc(NS(=O)(=O)c2ccc(N/C=C\C(=O)c3ccc(C)cc3)cc2)s1		inactive: -4.57%
CCOC(=O)c1ccc(Oc2cn[nH]c2-c2ccc(OCC(=O)NN)cc2O)cc1		inactive: 3.67%
COc1ccc(CN(CC(O)COCc2ccccc2)S(=O)(=O)c2ccccc2Br)cc1 (stereo not drawn)	inconclusive: 11.2 µM [inhibitor, partial curve, poor fit]	
Oc1ccccc1N=Cc1c(O)ccc2oc3c(c12)CCCC3	active: 4.47 µM	
COc1cc(OC)c(OC)cc1/C=C1\CC(C)C/C(=C\c2cc(OC)c(OC)cc2OC)C1=O (stereo not drawn)	active: 8.91 µM	
O=C(COc1ccc([N+](=O)[O-])cc1Cl)N1CCc2ccccc21	inconclusive: 7.08 µM [inhibitor, single point]	
CCOC(=O)c1cn2ccc(C)cc2n1		inactive: -13.3%
Cc1cc2oc(C(=O)N(Cc3ccccc3)C3CCS(=O)(=O)C3)cc(=O)c2cc1Cl (stereo not drawn)		inactive: -2.11%
COc1ccc(-c2csc(N(CCCN(C)C)C(=O)c3ccccc3F)n2)cc1	inconclusive: 28.2 µM [inhibitor, single point]	
CCN(C(=O)COC(=O)c1ccc(Cl)nc1)C1CCS(=O)(=O)C1 (stereo not drawn)	inconclusive: 5.01 µM [inhibitor, single point]	
Cc1c[nH]c2ccccc12	inconclusive: 2.82 µM [inhibitor, partial curve]	
Cc1cc(=O)[nH]c(SCC(=O)Nc2ncc(S(=O)(=O)c3ccc([N+](=O)[O-])cc3)s2)n1		inactive: 4.54%

Copied from the listing for reference:
Compound	Potency	activity change, negative = inhibition
Oc1ccccc1N=Cc1c(O)ccc2oc3c(c12)CCCC3	active: 4.47 µM	
COc1cc(OC)c(OC)cc1/C=C1\CC(C)C/C(=C\c2cc(OC)c(OC)cc2OC)C1=O (stereo not drawn)	active: 8.91 µM	
